Laboratory results taken from article PMC9287887.
No constants are given. Whether binding was seen depends on the method and setting. In cells and extracts the contact can be indirect. Some results given as binding are weak or reduced against the parent protein; the word gives no strength.

Protein sequences, listed by entry. Tags and fused reporters are not part of them.
UniProt Q14457: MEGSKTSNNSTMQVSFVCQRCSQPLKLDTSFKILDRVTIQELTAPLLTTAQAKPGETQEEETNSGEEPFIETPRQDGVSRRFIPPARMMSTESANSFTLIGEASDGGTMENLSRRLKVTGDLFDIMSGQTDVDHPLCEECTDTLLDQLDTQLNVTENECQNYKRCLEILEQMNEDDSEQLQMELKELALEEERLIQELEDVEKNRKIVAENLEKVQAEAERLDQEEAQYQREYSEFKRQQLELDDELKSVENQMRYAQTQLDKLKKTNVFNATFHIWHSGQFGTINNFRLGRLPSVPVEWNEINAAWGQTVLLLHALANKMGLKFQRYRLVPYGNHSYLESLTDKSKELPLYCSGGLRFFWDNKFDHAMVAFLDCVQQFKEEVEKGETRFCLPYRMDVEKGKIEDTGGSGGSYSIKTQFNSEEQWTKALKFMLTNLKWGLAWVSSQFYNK

Columns and labels:
[1] = target: Beclin-1 (human (endogenous in osteosarcoma cells)) (UniProt Q14457); assay: co-IP; antibody added to cell lysate for 3 h at 4 °C, protein A-agarose for 1 h, three washes with lysis solution, western blot; precipitating antibody and cell line not stated
[2] = target: Recombinant GST-Beclin-1 (UniProt Q14457); assay: pull-down; recombinant GST-Beclin-1 on glutathione magnetic agarose beads (blocked with 5% BSA), incubated with KHOS cell lysate for 60 min at 37 °C, western blot; only the target purified

binding [1]: binds
binding [2]: binds
B1: Sialic acid-bound immunoglobulin lectin 15 (Siglec-15) (protein, UniProt Q6ZMC9 20-328)
chain: FVRTKIDTTENLLNTEVHSSPAQRWSMQVPPEVSAEAGDAAVLPCTFTHPHRHYDGPLTAIWRAGEPYAGPQVFRCAAARGSELCQTALSLHGRFRLLGNPRRNDLSLRVERLALADDRRYFCRVEFAGDVHDRYESRHGVRLHVTAAPRIVNISVLPSPAHAFRALCTAEGEPPPALAWSGPALGNSLAAVRSPREGHGHLVTAELPALTHDGRYTCTAANSLGRSEASVYLFRFHGASGASTVALLLGALGFKALLLLGVLAARAARRRPEHLDTPDTPPRSQAQESNYENLSQMNPRSPPATMCSP
